{"sequences": {"note": "Protein sequences, listed by entry. Tags and fused reporters are not part of them.", "UniProt P18056": "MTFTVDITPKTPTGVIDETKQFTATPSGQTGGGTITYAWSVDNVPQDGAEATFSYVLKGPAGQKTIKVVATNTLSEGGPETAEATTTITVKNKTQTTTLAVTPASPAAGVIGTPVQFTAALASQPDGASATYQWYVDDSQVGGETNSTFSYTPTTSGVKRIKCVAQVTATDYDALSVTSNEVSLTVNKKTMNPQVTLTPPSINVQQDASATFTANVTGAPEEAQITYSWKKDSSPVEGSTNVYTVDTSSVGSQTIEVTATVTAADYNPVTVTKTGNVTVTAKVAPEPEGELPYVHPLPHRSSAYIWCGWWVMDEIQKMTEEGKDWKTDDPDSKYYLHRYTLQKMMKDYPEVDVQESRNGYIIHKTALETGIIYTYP"}, "source": "paper PMC3396610", "target": "Highly Immunogenic Outer Capsid Protein (gphoc) of bacteriophage T4 (bacteriophage T4) (UniProt P18056)", "experiment": "dynamic light scattering; purified, non-denatured protein preparations; hydrodynamic diameter by Zetasizer Nano, 5 measurements of 15 runs, at least two independent preparations; both purified", "note": "Results are given in words; binding and its absence hold for the method and conditions named."}
{"substance": "Highly Immunogenic Outer Capsid Protein (gphoc) of bacteriophage T4 (from UniProt P18056 1-376)", "values": [{"measurement": "binding", "result": "no binding"}]}
